Experimental data: US9078864B2, “Agonists for antimicrobial peptide systems” (priority 2008, dated 2015)
At least one structure is not confirmed: it was looked up by name or label, or the drawing left a doubt.

System: PBA induced CAMP gene expression
Assay: Inhibition of PBA induced CAMP gene expression by MAP kinase inhibitors in VA10 cells
Assay type: cell-based, human
Settings: 20 μM inhibitor one hour prior to 4 mM PBA, 24 hours
Description: FIG. 6B. […] CAMP mRNA levels were determined by real time RT-PCR. Individual samples were normalized to total RNA input. Results were normalized to expression in control samples where controls were given the arbitrary value of one. Normalized data is plotted as mean+SE from three independent experiments. *: P<0.05; **: P<0.01; ***: P<0.001
The effect of inhibitors for c-Jun N-terminal kinase (JNK), p38 kinase and extracellular signal-regulated kinase ½ (ERK½) on PBA induced CAMP gene expression were also investigated as shown in FIG. 6B. One hour prior to stimulation with 4 mM PBA, VA10 cells were pre incubated with 20 μM SP600125, SB203580 or U0126 to inhibit the respective kinases. After 24 hours of incubation, total RNA was isolated and analyzed by real time RT-PCR for CAMP mRNA.

Oc1c2ccccc2c2c3c(cccc13)N=N2 [SP600125]
PBA induced CAMP gene expression in presence of inhibitor: significantly reduced
